# No constants are given. Whether binding was seen depends on the method and setting. Binding seen in cells or lysates may run through a third protein. Some results given as binding are weak or reduced against the parent protein; the word gives no strength.
# Protein sequences, listed by entry. Tags and fused reporters are not part of them. Residues count along the entry.
# UniProt Q14114, residues 33-963: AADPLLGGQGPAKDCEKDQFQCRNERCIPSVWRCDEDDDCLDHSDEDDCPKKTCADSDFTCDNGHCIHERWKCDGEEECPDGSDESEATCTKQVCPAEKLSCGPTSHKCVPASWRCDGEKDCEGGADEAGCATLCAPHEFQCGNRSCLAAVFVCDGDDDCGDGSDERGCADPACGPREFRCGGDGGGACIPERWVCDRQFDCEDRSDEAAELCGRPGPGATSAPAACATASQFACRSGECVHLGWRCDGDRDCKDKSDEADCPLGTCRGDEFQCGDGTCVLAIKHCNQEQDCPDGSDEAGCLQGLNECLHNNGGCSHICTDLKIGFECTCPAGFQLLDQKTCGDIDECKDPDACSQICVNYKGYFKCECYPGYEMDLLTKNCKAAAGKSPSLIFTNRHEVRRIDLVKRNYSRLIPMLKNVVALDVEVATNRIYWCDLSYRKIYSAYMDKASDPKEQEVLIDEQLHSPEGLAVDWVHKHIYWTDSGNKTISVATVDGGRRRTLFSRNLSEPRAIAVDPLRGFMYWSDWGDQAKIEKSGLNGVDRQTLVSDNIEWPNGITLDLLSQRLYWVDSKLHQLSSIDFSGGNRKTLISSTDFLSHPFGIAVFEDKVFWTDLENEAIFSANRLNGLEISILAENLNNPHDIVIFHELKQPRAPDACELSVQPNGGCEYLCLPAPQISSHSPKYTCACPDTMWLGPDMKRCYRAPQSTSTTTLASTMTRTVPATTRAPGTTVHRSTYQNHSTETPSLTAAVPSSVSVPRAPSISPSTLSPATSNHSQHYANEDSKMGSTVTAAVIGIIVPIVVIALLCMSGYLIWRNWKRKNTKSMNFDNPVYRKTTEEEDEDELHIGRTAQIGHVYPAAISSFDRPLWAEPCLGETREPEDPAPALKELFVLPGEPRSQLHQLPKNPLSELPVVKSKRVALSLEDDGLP
# Assays:
# APP695-Myc (human) [1] = molecular target: APP695-Myc (human) (UniProt P05067); assay: condition: only independent lysates of singly expressing cells combined after lysis; co-IP; independent HUNT lysates from ApoER2-HA-expressing N2a cells and from APP695-Myc-transfected parental N2a cells combined after lysis, then immunoprecipitated with anti-Myc and blotted with anti-HA
# APP695-Myc (human) [2] = molecular target: APP695-Myc (human) (UniProt P05067); assay: co-IP; N2a cells stably expressing HA-tagged ApoER2 or ApoER2-Tless, transiently transfected with APP695-Myc; lysed in Buffer HUNT (20 mM Tris-HCl pH 8.0, 100 mM NaCl, 1 mM EDTA, 1% NP40, 0.5% TX-100, 50 mM NaF); immunoprecipitated with anti-Myc (9E10) and protein A/G agarose at 4°C, blotted with anti-HA
substance,measurement,setting,value
ApoER2-HA (from UniProt Q14114 33-963) (receptor),binding,APP695-Myc (human) [1],no binding
same,binding,APP695-Myc (human) [2],binds

# — article PMC1939850
